## Screening data, single-dose tests

Source: ChEMBL document CHEMBL3988442, “University of Dundee, Small-Polar-MMV Screening Library” (2021).

Results are given as percent effect.
The controls that fix the scale are not given in the record; negative values are as filed.
Compounds were drawn at random from those tested, without regard to their results.
Two or more numbers in one place are separate tests of the same structure; such repeats can differ widely.

A: 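Phenotypic screen: M. tuberculosis growth, cholesterol and DPPC medium, 4 days; the read-out is not stated. Tested at 50 µM. The record gives no direction; compounds that gave an IC50 in retests scored well above the rest, so higher reads as more growth inhibition. Size under these conditions: about 69,000 compounds, about 370 of them at 50% or above in at least one test.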
B: 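Phenotypic screen: M. tuberculosis growth, glucose 7H9 medium, 3 days; the read-out is not stated. Concentration: 50 µM. The record gives no direction; compounds that gave an IC50 in retests scored well above the rest, so higher reads as more growth inhibition. About 69,000 compounds were tested under these conditions; 1.1% (about 760) showed 50% or more at least once.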

{"compound": "Clc1ccc(-n2cc(CNC3CCc4ncnn4C3)cn2)cc1", "stereo": "centres undefined", "A": -28.51, "B": -24.36}
{"compound": "Cn1ncc2c(N3CCS(=O)(=O)CC3)nc(-c3cccnc3)nc21", "A": -29.24, "B": -21.32}
{"compound": "O=C(NCCNc1cnccn1)C1CCN(C(=O)N2CCCC2)CC1", "A": -1.225, "B": 8.187}
{"compound": "O=C(O)C(F)(F)F.O=c1ccc2c(n1CC1CCOCC1)CCN(Cc1ccoc1)CC2", "A": -20.15, "B": -15.88}
{"compound": "O=C(O)C(F)(F)F.[H][C@@]12C[C@H](C(=O)Nc3ccccc3)[C@@]([H])(CN(CC)C1)O2", "A": "-3.526 and 14.55", "B": 13.23}
{"compound": "CNc1cc(N2CCCC2CNCc2cccnc2)ncn1", "stereo": "centres undefined", "A": -3.021, "B": -11.59}
{"compound": "CCS(=O)(=O)CCNC1CCN(c2nc3ccc(Cl)cc3s2)CC1", "A": 8.415, "B": 41.84}
{"compound": "CCN1CCc2c(cccc2NC(=O)CN(C)C2CCSC2)C1", "stereo": "centres undefined", "A": -1.827, "B": -7.518}
{"compound": "Cc1nn(Cn2ccc(C(=O)N3CCOCC3)n2)c(C)c1Cl", "A": 6.899, "B": "20.89 and 2.881"}
{"compound": "CCN1CCN(C(=O)COc2ccc(CN(C)S(C)(=O)=O)cc2)CC1", "A": 19.61, "B": "32.21 and 2.174"}
{"compound": "CCn1cc(N2Cc3nc(N4CCCC4)ncc3C2=O)cn1", "A": -28.33, "B": -14.12}
{"compound": "c1cn(CC2CCOCC2)c(-c2cc(CN3CCCC3)cs2)n1", "A": -27.28, "B": -16.55}
{"compound": "CC(C)c1ncc2c(n1)CN(Cc1cccc(OCC(N)=O)c1)CC2", "A": -1.014, "B": -2.013}
{"compound": "Cc1noc(C)c1CCC(=O)Nc1ccn(C)n1", "A": -2.745, "B": 6.778}
{"compound": "Cc1cc(NC(=O)N2CCC[C@@H]2CO)nn1-c1cccc(Cl)c1", "A": 23.23, "B": "6.921 and 6.006"}
{"compound": "CN(C)c1cc(CNC(=O)c2cn(-c3ccc(F)cc3)nn2)ccn1", "A": -2.394, "B": 23.25}
{"compound": "O=C1CC2(CCN(Cc3ccc4cccc(O)c4n3)CC2)CN1", "A": -7.592, "B": -24.82}
{"compound": "CC(C)CCN1C2(CCN(C(=O)N(C)C)C2)c2ccccc2S1(=O)=O", "stereo": "centres undefined", "A": -18.2, "B": 1.627}
{"compound": "CC(C(=O)Nc1ccnn1C(C)C)N1CCN(Cc2ccccc2)CC1", "stereo": "centres undefined", "A": 13.63, "B": -5.42}
{"compound": "CN(C)Cc1ccnc(C2CCCN2Cc2cc[nH]n2)n1", "stereo": "centres undefined", "A": -19.63, "B": -20.49}
{"compound": "COc1ccc(Br)cc1CN(C)C(C)c1nc(C(C)C)no1", "stereo": "centres undefined", "A": 0.9091, "B": "4.265 and 37.48"}
{"compound": "CN(CC(F)(F)F)C(=O)CNC(=O)N1CCCC(C(F)(F)F)C1", "stereo": "centres undefined", "A": -6.674, "B": 0.3751}
{"compound": "O=C(NCC1CCC1)c1ccc(-n2ccnc2)nn1", "A": -6.453, "B": 10.89}
{"compound": "CN(C)c1nccc(NCc2cc(-c3ccco3)n[nH]2)n1", "A": -3.804, "B": -5.661}
{"compound": "COc1ccc(CN2CCNC(=O)CC2)cc1SC(F)(F)F", "A": "2.456 and -8.969", "B": "11.04 and 22.76"}
{"compound": "Cn1cc(C(=O)NCC2CCN(C(=O)NC3CC3)CC2)cn1", "A": 17.27, "B": -2.193}
{"compound": "Cc1nn(C)c(C)c1C1COCCN1C(=O)c1n[nH]c2ccccc12", "stereo": "centres undefined", "A": -12.75, "B": -13.7}
{"compound": "O=C(O)C(F)(F)F.O=C(O)C(F)(F)F.O=C(c1ccsc1)N1CCOC2(CCN(Cc3cccnc3)CC2)C1", "A": 8.859, "B": 20.12}
{"compound": "O=C(N[C@H]1CC[C@H](O)CC1)c1ccc2nc(-c3ccccc3)cn2c1", "A": -9.548, "B": "-14.23 and 5.52"}
{"compound": "CC(C)C(NC(=O)NCC1(CO)CC1)c1nnc2n1CCC2", "stereo": "centres undefined", "A": "0.6086 and -1.364", "B": 5.278}
{"compound": "O=c1c2cnc(N3CCCC3)nc2ccn1-c1cccc(F)c1", "A": "-9.047 and -25.86", "B": -14.22}
{"compound": "Cc1cc(NC(=O)NCCc2ccc(S(N)(=O)=O)cc2)n(C)n1", "A": -33.43, "B": 13.2}
{"compound": "O=C(CCCc1ncc(-c2ccccc2)o1)N1CCN(CCO)CC1", "A": -13.68, "B": -7.997}
{"compound": "CCn1ccnc1CN1CCN(Cc2ccccn2)CC1C", "stereo": "centres undefined", "A": "1.614 and -11.57", "B": -44.41}